Source: the supplement of paper PMC10849652
This is one part of the list.

Protein sequences, listed by entry. Tags and fused reporters are not part of them. Lines headed by an entry give the natural chain unless they say otherwise; changes in a name come on top.
UniProt Q2NKX8: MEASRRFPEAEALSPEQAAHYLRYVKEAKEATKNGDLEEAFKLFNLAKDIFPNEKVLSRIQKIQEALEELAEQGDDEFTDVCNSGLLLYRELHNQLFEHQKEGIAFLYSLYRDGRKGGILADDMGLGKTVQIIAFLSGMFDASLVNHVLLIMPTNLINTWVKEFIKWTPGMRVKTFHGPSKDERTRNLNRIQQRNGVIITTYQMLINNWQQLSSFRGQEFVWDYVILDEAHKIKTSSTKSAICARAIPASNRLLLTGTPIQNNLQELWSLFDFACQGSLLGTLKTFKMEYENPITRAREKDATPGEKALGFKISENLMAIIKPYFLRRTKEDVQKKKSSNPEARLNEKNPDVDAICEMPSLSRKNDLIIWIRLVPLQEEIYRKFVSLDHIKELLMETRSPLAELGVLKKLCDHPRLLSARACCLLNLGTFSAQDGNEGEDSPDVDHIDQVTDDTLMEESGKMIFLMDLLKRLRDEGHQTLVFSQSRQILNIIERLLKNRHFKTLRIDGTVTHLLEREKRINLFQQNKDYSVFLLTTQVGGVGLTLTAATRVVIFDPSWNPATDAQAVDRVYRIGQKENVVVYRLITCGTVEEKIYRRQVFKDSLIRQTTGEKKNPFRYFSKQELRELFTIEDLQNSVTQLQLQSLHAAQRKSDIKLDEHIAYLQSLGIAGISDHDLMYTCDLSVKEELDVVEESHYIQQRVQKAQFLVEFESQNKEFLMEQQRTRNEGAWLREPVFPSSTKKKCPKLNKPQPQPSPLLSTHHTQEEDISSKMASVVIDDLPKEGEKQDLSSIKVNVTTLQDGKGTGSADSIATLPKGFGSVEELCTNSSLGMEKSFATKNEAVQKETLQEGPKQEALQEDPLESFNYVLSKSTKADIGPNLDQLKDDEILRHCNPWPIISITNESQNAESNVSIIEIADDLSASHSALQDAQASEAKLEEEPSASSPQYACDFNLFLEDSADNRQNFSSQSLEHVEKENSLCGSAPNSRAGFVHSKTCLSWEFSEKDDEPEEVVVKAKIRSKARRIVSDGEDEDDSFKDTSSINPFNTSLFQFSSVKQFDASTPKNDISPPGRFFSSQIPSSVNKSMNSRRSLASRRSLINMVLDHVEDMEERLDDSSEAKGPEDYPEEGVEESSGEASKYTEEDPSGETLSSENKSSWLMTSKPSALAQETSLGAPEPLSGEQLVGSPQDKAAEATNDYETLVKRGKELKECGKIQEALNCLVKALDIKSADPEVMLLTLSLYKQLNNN
UniProt Q9NWS6: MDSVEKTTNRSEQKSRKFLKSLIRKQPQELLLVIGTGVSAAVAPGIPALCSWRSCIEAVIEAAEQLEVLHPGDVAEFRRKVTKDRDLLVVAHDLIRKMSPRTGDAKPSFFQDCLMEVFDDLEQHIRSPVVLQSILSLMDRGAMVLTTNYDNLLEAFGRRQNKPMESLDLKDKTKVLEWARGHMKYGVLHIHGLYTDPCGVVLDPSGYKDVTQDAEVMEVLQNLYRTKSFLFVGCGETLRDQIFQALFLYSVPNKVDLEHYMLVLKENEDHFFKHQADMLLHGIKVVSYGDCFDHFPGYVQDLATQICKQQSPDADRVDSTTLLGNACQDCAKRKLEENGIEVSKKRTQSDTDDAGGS
UniProt Q96PV7: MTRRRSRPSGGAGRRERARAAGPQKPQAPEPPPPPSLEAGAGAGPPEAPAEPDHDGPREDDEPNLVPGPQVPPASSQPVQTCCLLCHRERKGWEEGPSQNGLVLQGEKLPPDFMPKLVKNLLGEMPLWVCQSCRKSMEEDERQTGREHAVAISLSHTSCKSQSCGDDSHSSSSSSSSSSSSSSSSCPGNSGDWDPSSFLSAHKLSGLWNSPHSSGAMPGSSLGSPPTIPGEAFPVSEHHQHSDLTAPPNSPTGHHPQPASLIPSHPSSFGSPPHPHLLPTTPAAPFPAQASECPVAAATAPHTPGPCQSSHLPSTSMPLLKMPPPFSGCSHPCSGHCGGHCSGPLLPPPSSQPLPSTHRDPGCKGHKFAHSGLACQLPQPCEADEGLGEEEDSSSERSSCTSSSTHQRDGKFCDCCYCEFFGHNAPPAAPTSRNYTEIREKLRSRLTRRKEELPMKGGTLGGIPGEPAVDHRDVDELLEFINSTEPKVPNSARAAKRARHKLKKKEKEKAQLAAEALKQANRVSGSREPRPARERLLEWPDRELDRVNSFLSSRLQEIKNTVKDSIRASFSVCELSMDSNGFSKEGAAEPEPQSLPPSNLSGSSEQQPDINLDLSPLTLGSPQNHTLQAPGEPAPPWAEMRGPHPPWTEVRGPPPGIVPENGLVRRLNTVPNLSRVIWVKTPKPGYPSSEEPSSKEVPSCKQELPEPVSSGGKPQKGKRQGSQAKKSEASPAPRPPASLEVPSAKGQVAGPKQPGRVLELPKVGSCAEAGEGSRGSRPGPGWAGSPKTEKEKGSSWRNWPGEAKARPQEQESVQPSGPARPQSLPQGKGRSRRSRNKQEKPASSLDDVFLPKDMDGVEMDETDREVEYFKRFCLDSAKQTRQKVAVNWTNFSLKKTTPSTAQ
UniProt P05413, whole entry, looked up: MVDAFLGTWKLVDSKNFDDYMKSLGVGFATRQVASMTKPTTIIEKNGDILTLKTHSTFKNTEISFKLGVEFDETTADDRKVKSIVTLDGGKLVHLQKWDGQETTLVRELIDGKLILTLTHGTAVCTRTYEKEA
UniProt Q6P1L5: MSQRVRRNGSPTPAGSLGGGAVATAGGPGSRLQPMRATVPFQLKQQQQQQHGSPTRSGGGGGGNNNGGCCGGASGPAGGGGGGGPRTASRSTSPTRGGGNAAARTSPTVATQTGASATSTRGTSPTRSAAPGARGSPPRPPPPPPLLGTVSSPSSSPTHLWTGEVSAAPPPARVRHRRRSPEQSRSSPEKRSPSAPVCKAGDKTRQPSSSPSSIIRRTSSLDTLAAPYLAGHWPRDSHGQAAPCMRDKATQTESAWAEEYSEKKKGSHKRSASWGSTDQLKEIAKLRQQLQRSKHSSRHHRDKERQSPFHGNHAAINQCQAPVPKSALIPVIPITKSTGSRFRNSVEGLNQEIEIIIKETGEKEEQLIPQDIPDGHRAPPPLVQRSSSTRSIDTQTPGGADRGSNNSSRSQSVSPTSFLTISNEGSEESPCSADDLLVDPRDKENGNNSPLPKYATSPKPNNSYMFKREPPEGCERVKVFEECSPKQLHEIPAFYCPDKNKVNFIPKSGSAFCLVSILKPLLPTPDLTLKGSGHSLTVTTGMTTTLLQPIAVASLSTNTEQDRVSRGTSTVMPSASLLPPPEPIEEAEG
UniProt O75460: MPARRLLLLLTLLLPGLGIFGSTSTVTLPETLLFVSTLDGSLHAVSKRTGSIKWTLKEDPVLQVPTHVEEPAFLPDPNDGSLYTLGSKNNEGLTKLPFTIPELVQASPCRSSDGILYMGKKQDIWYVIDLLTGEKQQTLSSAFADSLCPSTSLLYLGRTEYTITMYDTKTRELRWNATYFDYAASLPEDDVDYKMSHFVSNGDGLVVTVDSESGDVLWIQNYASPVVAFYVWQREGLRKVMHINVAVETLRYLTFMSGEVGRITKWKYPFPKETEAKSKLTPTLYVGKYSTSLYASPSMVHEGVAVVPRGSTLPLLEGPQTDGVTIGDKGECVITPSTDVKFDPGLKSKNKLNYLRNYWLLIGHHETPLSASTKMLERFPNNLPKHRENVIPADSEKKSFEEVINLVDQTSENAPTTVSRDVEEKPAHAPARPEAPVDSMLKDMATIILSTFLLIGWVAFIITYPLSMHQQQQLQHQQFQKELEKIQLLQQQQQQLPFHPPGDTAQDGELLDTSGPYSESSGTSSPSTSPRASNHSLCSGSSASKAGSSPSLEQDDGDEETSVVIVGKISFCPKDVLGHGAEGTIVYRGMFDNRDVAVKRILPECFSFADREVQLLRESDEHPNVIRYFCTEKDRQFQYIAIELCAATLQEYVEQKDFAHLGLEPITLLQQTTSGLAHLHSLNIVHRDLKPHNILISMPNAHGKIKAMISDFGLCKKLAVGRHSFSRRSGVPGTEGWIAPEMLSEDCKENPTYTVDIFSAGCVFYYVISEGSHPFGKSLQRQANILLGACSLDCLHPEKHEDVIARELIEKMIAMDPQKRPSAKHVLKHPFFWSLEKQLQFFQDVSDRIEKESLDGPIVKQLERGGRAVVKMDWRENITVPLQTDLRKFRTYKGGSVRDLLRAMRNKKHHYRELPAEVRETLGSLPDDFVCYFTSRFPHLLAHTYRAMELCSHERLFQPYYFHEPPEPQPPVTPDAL
UniProt Q8N0U4: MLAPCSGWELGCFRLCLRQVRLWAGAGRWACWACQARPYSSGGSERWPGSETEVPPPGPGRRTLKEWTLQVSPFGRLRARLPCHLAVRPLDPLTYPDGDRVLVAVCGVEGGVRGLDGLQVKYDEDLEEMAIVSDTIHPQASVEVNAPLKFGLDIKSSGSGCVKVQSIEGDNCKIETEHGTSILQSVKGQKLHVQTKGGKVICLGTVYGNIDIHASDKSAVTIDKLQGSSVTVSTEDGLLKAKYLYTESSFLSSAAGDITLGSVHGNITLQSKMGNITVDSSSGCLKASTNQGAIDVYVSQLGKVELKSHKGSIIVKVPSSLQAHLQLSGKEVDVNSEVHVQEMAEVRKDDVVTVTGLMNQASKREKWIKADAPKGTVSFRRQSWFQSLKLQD
UniProt P00742, whole entry, looked up: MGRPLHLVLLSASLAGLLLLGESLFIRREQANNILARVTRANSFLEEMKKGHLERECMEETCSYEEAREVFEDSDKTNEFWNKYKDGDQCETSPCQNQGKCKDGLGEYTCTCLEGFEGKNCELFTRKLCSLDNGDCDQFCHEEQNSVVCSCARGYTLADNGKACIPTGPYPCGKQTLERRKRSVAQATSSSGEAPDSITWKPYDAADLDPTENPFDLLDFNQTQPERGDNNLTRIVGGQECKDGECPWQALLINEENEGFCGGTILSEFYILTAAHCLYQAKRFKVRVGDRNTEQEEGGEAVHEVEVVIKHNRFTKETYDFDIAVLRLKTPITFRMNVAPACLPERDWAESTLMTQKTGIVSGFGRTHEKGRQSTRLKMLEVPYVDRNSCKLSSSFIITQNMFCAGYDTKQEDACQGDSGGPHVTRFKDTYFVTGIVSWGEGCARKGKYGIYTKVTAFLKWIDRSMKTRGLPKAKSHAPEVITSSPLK
UniProt Q9H6S3: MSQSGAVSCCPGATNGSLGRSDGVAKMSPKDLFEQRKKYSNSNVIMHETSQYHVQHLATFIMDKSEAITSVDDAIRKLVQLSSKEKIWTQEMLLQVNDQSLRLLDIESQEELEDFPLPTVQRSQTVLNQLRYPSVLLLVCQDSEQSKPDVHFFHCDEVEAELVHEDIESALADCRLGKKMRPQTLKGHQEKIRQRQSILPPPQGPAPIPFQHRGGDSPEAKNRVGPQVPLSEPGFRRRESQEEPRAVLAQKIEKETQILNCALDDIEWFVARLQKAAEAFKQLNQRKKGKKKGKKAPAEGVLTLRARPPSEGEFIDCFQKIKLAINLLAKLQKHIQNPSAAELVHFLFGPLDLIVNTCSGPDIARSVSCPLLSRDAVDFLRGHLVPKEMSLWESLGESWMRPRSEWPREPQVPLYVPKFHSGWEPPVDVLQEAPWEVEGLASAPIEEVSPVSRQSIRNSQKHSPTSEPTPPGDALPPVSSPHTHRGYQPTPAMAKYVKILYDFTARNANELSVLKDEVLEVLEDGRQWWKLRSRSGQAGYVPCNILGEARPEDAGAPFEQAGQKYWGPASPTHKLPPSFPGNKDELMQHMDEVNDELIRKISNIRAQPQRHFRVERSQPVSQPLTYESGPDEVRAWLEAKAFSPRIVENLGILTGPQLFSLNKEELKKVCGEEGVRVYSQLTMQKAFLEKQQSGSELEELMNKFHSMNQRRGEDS
UniProt P00740, whole entry, looked up: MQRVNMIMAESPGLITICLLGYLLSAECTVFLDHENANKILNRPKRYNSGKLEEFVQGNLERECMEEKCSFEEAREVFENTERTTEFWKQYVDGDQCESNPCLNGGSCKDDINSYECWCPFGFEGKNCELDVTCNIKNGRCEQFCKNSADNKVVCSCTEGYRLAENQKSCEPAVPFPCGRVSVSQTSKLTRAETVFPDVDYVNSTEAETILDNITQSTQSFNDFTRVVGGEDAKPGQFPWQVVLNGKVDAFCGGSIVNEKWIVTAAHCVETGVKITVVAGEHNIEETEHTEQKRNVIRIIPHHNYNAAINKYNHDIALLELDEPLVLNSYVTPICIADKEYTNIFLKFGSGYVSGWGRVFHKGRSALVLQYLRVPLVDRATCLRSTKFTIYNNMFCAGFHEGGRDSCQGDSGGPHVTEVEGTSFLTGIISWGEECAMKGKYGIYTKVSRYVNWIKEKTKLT
UniProt Q8N128: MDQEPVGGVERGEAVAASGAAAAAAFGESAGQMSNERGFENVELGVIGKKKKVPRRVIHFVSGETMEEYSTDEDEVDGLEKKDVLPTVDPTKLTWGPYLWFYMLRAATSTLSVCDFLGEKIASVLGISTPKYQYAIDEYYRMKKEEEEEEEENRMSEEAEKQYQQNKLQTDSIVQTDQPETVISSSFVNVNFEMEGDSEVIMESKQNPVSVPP

Legend:
Assay in all cases: log2 fold change, soluble protein after heating vs DMSO (PISA); higher = thermal stabilisation; K562 cells, 10 uM, 30 min; active = over 0.2 and 3.5 SD of the protein, either way, in both replicates (recomputed)
[1] = compound: CC[C@@H]1C(=O)N(C)c2cnc(Nc3ccc(C(=O)NC4CCN(C)CC4)cc3OC)nc2N1C1CCCC1
Procedure, shortened: (§1)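 Soluble protein was quantified by TMTpro 16plex LC-MS/MS after channel sums were equalised. It was obtained as the supernatant after 21,000xg for 90 min from pooled aliquots of K562 cells (2×10^6 cells/mL, 10 μM compound, 30 min) heated for 3 min across 48°C-58°C and extracted in PBS with 0.5% NP-40 at 4°C. Thermal stability values are relative to control samples and come from duplicates. They are given as log2 fold changes.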

volasertib = compound: CC[C@@H]1C(=O)N(C)c2cnc(Nc3ccc(C(=O)N[C@H]4CC[C@H](N5CCN(CC6CC6)CC5)CC4)cc3OC)nc2N1C(C)C [volasertib]
Procedure, shortened: as §1

[2] = compound: CC[C@H](C)N1C=C(C2=C(C=C(C=C21)C3=CN=C(C=C3)N4CCNCC4)C(=O)NCC5=C(C=C(NC5=O)C)C)C
Procedure, shortened: as §1

epoxomicin = compound: CC[C@H](C)[C@@H](C(=O)N[C@@H]([C@@H](C)O)C(=O)N[C@@H](CC(C)C)C(=O)[C@]1(CO1)C)NC(=O)[C@H]([C@@H](C)CC)N(C)C(=O)C [epoxomicin]
Procedure, shortened: as §1

[3] = compound: CCn1cc(-c2ccnc3[nH]c(-c4cccc(CN(C)C)c4)cc23)c(-c2ccc(NC(=O)N(C)C)cc2)n1
Procedure, shortened: as §1

[4] = compound: CN(C)CC(=O)Nc1ccc2[nH]c(=O)c3ccccc3c2c1
Procedure, shortened: as §1

rosiglitazone = compound: CN(CCOC1=CC=C(C=C1)C[C@H]2C(=O)NC(=O)S2)C3=CC=CC=N3 (racemic) [rosiglitazone]
Procedure, shortened: as §1

[5] = compound: CN1CCC(CNc2ccc3ncc(-c4cccc(OC(F)(F)F)c4)n3n2)CC1
Procedure, shortened: as §1

sotrastaurin = compound: CN1CCN(c2nc(C3=C(c4c[nH]c5ccccc45)C(=O)NC3=O)c3ccccc3n2)CC1 [sotrastaurin]
Procedure, shortened: as §1

alvocidib = compound: CN1CC[C@H](c2c(O)cc(O)c3c(=O)cc(-c4ccccc4Cl)oc23)[C@H](O)C1 [alvocidib]
Procedure, shortened: as §1

Tubastatin A = compound: CN1CCc2c(c3ccccc3n2Cc2ccc(C(=O)NO)cc2)C1 [Tubastatin A]
Procedure, shortened: as §1

defactinib = compound: CNC(=O)c1ccc(Nc2ncc(C(F)(F)F)c(NCc3nccnc3N(C)S(C)(=O)=O)n2)cc1 [defactinib]
Procedure, shortened: as §1

rucaparib = compound: CNCc1ccc(-c2[nH]c3cc(F)cc4c3c2CCNC4=O)cc1 [rucaparib]
Procedure, shortened: as §1

encorafenib = compound: COC(=O)N[C@@H](C)CNc1nccc(-c2cn(C(C)C)nc2-c2cc(Cl)cc(NS(C)(=O)=O)c2F)n1 [encorafenib]
Procedure, shortened: as §1

[6] = compound: COC(=O)[C@H](CCSC)NC(=O)C1=C(C=C(C=C1)NC[C@H](CS)N)C2=CC=CC=C2
Procedure, shortened: as §1

[7] = compound: CN1C2=C(C3=C1C(=O)N(N=C3)CC4=CC(=CC=C4)N)SC(=C2)S(=O)C
Procedure, shortened: as §1

saracatinib = compound: CN1CCN(CCOc2cc(OC3CCOCC3)c3c(Nc4c(Cl)ccc5c4OCO5)ncnc3c2)CC1 [saracatinib]
Procedure, shortened: as §1

[8] = compound: CNC(=O)C1=CC=CC=C1NC2=NC(=NC=C2Cl)NC3=C(C=C(C=C3)N4CCOCC4)OC
Procedure, shortened: as §1

[9] = compound: CNc1nc(-c2ccc3c(N)n[nH]c3c2)cc(N2C[C@@H](C(=O)NC3CCCCC3)CC[C@H]2C)n1
Procedure, shortened: as §1

[10] = compound: CCn1c(C(=O)N(C2CC2)C2CC2)cc2c3c(ncn3C)c(Nc3cc(C)n(C)n3)nc21
Procedure, shortened: as §1

Measured: log2 fold change

ERCC6L (UniProt Q2NKX8)
inactive: [1] 0.068 | volasertib 0.008 | [2] 0.072 | epoxomicin -0.149 | [3] 0.148 | [4] -0.048 | rosiglitazone 0.05 | [5] -0.028 | sotrastaurin -0.058 | alvocidib 0.047 | Tubastatin A 0.101 | defactinib -0.096 | rucaparib -0.053 | encorafenib 0.161 | [6] -0.173

ESS2 (UniProt Q96DF8)
inactive: [1] -0.025 | [2] -0.077 | epoxomicin -0.012 | [3] 0.036 | [4] -0.032 | [7] 0.024 | [5] -0.012 | saracatinib 0.041 | sotrastaurin -0.025 | Tubastatin A -0.055 | [8] -0.038 | defactinib 0 | rucaparib -0.013 | [9] -0.142 | encorafenib -0.012 | [6] 0.01
active: volasertib -0.245

ERAP2 (UniProt Q6P179)
inactive: volasertib -0.209 | [2] -0.177 | epoxomicin 0.023 | [10] 0.07 | [7] -0.271 | saracatinib -0.2 | [8] 0.05 | [9] -0.054

FAM118A (UniProt Q9NWS6)
inactive: volasertib -0.54 | [2] 0.136 | epoxomicin 0.118 | [3] -0.075 | [4] 0.222 | [7] -0.007 | [5] -0.142 | saracatinib -0.138 | sotrastaurin -0.135 | Tubastatin A 0.029 | defactinib -0.179 | rucaparib 0.29 | [9] 0.068 | encorafenib -0.172 | [6] -0.079
active: [1] -0.812

FAM193B (UniProt Q96PV7)
inactive: [1] 0.126 | volasertib 0.092 | epoxomicin -0.033 | [4] -0.442 | [7] 0.247 | saracatinib -0.289 | sotrastaurin 0.06 | Tubastatin A -0.007 | defactinib 0.231 | rucaparib 0.19 | [9] 0.096 | encorafenib 0.162 | [6] 0.044

FAM160A2 isoform 2 (UniProt Q8N612)
inactive: [1] -0.074 | [2] -0.048 | epoxomicin -0.177 | [3] 0.06 | [4] 0.052 | [7] 0.287 | [5] -0.258 | saracatinib -0.066 | Tubastatin A -0.17 | defactinib -0.002 | rucaparib -0.085 | [9] -0.064 | encorafenib -0.168 | [6] 0.128

FAM126B (UniProt Q8IXS8)
inactive: volasertib 0.004 | [2] -0.285 | [3] -0.081 | [7] -0.185 | [5] 0.316 | saracatinib 0.029 | [9] 0.086

FABP3 (UniProt P05413)
inactive: [1] 0.101 | rucaparib 0.346 | encorafenib -0.221

FAM172A (UniProt Q8WUF8)
inactive: [1] -0.132 | [2] -0.087 | epoxomicin -0.028 | [3] 0.144 | [4] 0.027 | rosiglitazone 0.039 | [5] 0.134 | sotrastaurin -0.087 | alvocidib -0.012 | defactinib -0.002 | rucaparib -0.09 | encorafenib 0.033 | [6] -0.054

FAM117B (UniProt Q6P1L5)
inactive: [1] -0.054 | epoxomicin 0.021 | [3] 0.012 | [4] 0.11 | [7] -0.072 | [5] 0.017 | saracatinib -0.004 | Tubastatin A 0.084 | [8] -0.035 | defactinib -0.494 | rucaparib -0.013 | [9] -0.223 | encorafenib -0.092 | [6] -0.341

ESRRB isoform 1 (UniProt O95718)
inactive: [1] -0.015 | [10] -0.004 | [4] -0.178 | [7] -0.036 | saracatinib 0.135 | alvocidib -0.308 | [8] -0.06 | defactinib -0.033 | rucaparib 0.14 | [9] -0.07 | encorafenib 0.176 | [6] -0.065

ERN1 (UniProt O75460)
inactive: volasertib -0.317 | [2] -0.026 | epoxomicin 0.289 | [10] 0.038 | [3] 0.092 | [7] -0.042 | [5] 0.071 | saracatinib -0.379 | sotrastaurin 0.013 | Tubastatin A 0.064 | [8] -0.269 | [9] -0.051

ETF1 isoform 2 (UniProt P62495)
inactive: [1] 0.393 | volasertib -0.007 | [3] 0.08 | [4] 0.06 | rosiglitazone 0.034 | [7] -0.304 | [5] -0.274 | saracatinib 0.108 | defactinib 0.035 | rucaparib -0.29 | [9] -0.068 | encorafenib 0.171 | [6] -0.148

4 successive entries out of the list so far:
FAM172A (UniProt Q8WUF8)
inactive: [1] -0.132 | [2] -0.087 | epoxomicin -0.028 | [3] 0.144 | [4] 0.027 | rosiglitazone 0.039 | [5] 0.134 | sotrastaurin -0.087 | alvocidib -0.012 | defactinib -0.002 | rucaparib -0.09 | encorafenib 0.033 | [6] -0.054

FAM117B (UniProt Q6P1L5)
inactive: [1] -0.054 | epoxomicin 0.021 | [3] 0.012 | [4] 0.11 | [7] -0.072 | [5] 0.017 | saracatinib -0.004 | Tubastatin A 0.084 | [8] -0.035 | defactinib -0.494 | rucaparib -0.013 | [9] -0.223 | encorafenib -0.092 | [6] -0.341

ESRRB isoform 1 (UniProt O95718)
inactive: [1] -0.015 | [10] -0.004 | [4] -0.178 | [7] -0.036 | saracatinib 0.135 | alvocidib -0.308 | [8] -0.06 | defactinib -0.033 | rucaparib 0.14 | [9] -0.07 | encorafenib 0.176 | [6] -0.065

ERN1 (UniProt O75460)
inactive: volasertib -0.317 | [2] -0.026 | epoxomicin 0.289 | [10] 0.038 | [3] 0.092 | [7] -0.042 | [5] 0.071 | saracatinib -0.379 | sotrastaurin 0.013 | Tubastatin A 0.064 | [8] -0.269 | [9] -0.051

The list continues:

FAM185A (UniProt Q8N0U4)
inactive: volasertib 0.027 | [2] -0.019 | [10] 0.002 | [4] 0.166 | rosiglitazone 0.024 | [7] -0.05 | saracatinib -0.059 | Tubastatin A 0.07 | [8] -0.072 | defactinib -0.084 | [9] 0.036 | [6] -0.045

FAM160B2 (UniProt Q86V87)
inactive: [1] 0.09 | [3] 0.313 | [5] 0.091 | alvocidib -0.533 | rucaparib 0.474 | encorafenib 0.067

F10 (UniProt P00742)
inactive: [1] -0.136 | [2] 0.111 | epoxomicin -0.155 | [10] -0.016 | [4] -0.006 | rosiglitazone 0.018 | sotrastaurin 0.202 | Tubastatin A -0.047 | [8] 0.082 | defactinib -0.396 | rucaparib -0.205 | encorafenib -0.032 | [6] 0.392

ERCC8 (UniProt Q13216)
inactive: [1] -0.003 | volasertib -0.014 | [2] -0.064 | [10] -0.011 | [3] -0.05 | [4] 0.078 | rosiglitazone -0.015 | [7] -0.013 | [5] -0.093 | saracatinib 0.189 | sotrastaurin -0.067 | alvocidib -0.058 | Tubastatin A 0 | [8] -0.005 | defactinib 0.071 | rucaparib -0.104 | [9] -0.038 | encorafenib 0.135 | [6] -0.139

EPS8L2 isoform 3 (UniProt Q9H6S3)
inactive: [1] -0.032 | epoxomicin 0.018 | [10] -0.272 | [7] -0.106 | saracatinib 0.039 | sotrastaurin -0.159 | Tubastatin A 0.047 | [8] -0.013 | rucaparib -0.049 | [9] 0.087 | encorafenib -0.031

FAAP20 isoform 2 (UniProt Q6NZ36)
inactive: [1] 0.092 | epoxomicin 0.011 | [3] -0.042 | [5] 0.109 | rucaparib 0.054 | encorafenib -0.282

F9 (UniProt P00740)
inactive: volasertib 0.162 | [2] 0.147 | [4] 0.071 | rosiglitazone 0.054 | [7] 0.188 | saracatinib 0.301 | alvocidib 0.019 | Tubastatin A -0.008 | defactinib -0.078 | [9] 0.2 | [6] 0.317

EXOSC10 (UniProt Q01780)
inactive: [1] -0.048 | volasertib 0.087 | epoxomicin -0.098 | [3] -0.222 | [4] -0.169 | [7] 0.029 | [5] -0.003 | saracatinib -0.091 | sotrastaurin 0.199 | Tubastatin A 0.143 | [8] -0.073 | defactinib 0.015 | rucaparib 0.101 | [9] 0.022 | encorafenib -0.327 | [6] 0.123

FAM177A1 isoform 2 (UniProt Q8N128)
active: [5] -0.259
inactive: [1] -0.039 | volasertib -0.108 | [2] 0.006 | epoxomicin 0.045 | [3] 0.045 | [4] -0.012 | [7] -0.023 | saracatinib 0.092 | sotrastaurin -0.021 | Tubastatin A 0.045 | [8] -0.094 | defactinib -0.054 | rucaparib 0.001 | [9] -0.042 | encorafenib -0.029 | [6] -0.065
